Source: US10202443
These are yes or no findings as the source states them, for the method shown. Some entries that bind do so weakly or less than the wild type.

Chains of the proteins cited; added tags and fusions are not shown. Lines headed by an entry give the natural chain unless they say otherwise; changes in a name come on top.
UniProt Q13148: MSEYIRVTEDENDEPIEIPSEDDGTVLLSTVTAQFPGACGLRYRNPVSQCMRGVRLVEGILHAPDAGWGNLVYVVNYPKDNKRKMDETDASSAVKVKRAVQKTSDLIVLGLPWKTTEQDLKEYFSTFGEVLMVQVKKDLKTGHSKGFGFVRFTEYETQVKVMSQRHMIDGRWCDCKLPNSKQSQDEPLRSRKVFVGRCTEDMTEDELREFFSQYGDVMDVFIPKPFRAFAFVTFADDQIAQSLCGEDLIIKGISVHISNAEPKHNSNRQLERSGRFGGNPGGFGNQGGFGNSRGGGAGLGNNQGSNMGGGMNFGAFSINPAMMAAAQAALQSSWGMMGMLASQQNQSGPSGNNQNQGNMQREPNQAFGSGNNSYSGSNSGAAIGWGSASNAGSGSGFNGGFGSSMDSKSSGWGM
UniProt Q04206: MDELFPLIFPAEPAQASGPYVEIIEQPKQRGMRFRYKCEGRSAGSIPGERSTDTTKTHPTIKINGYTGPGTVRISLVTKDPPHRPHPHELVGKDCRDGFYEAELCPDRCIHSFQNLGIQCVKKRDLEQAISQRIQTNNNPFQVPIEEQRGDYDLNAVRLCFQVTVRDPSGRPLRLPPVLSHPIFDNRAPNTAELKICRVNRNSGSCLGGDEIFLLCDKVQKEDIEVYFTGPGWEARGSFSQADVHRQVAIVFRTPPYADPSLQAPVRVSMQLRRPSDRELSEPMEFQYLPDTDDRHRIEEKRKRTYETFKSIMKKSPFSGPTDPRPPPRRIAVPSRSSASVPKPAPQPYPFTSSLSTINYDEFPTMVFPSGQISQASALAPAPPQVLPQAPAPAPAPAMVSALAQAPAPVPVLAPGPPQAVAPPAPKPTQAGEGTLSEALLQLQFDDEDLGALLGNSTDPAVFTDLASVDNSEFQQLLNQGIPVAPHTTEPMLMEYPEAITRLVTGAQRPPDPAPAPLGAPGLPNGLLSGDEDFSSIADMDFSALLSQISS

Target: human recombinant TDP-43_GST Tag (human) (UniProt Q13148)
Assay: ELISA: TDP-43 coated in dilutions, p65-His 0.2 ug/ml, anti-His-HRP, absorbance at 450 nm

- binding: binds
Substance: human recombinant p65-His-Tag (Enzo Life Sciences) (from UniProt Q04206 1-551)
